No constants are given. Whether binding was seen depends on the method and setting. Binding seen in cells or lysates may run through a third protein. Some results given as binding are weak or reduced against the parent protein; the word gives no strength.

For one molecule, binding results are on record in paper PMC12803835.

For the assay, the target named is T1, liprin-β1 (mouse (endogenous in MIN6)) (UniProt Q8C8U0).
T1 sequence: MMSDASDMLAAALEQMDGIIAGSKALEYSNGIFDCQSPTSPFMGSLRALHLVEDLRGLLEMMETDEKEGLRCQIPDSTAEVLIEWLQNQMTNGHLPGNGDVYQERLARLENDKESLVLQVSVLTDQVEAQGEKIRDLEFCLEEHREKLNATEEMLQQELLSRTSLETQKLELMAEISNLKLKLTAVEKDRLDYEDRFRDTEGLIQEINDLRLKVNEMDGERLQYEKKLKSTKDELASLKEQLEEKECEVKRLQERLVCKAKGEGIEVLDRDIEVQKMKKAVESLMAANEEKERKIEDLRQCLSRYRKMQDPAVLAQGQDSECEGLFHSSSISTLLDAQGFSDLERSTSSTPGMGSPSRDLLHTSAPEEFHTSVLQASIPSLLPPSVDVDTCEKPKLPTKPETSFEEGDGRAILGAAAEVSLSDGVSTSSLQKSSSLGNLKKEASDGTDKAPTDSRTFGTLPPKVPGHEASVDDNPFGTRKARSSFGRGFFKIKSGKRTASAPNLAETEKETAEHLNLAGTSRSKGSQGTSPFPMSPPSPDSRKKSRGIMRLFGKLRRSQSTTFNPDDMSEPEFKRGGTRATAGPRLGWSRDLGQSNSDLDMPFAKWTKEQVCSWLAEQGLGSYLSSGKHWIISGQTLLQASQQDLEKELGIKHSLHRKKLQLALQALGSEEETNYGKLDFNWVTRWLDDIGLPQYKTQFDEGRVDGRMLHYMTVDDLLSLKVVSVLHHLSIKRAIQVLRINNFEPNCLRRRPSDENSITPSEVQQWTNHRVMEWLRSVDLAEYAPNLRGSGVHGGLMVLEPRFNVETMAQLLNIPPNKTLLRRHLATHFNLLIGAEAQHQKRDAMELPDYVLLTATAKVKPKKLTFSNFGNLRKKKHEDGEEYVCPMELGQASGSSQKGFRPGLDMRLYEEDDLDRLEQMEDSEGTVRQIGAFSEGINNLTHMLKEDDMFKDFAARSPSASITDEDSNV
Kind of assay: co-IP; MIN6 β-cell line; immunoprecipitation of endogenous liprin-β1 with anti-liprin-β1 antibody, IgG control; blots for liprin-α1 and KANK1; n = 3.

B1: KANK1 (protein, UniProt E9Q238 1-1360)
chain: MAYTTKVNGCAAEKADGVLNGDHNKEKKDPYFVETPYGFQLDLDFVKYVDDIQKGNTIKKLNIQKRRKPSVPCPEVRAIPGHQGVWTSTESLSSSNSDDSKQCPSFLLARSHVTSTPIPRPPAPLETSPTFAVSENRQLLPPPSPQLPRHNLHVTKTLMETRRRLEQERVTMQMAPGDFRRPRLASFGGMGSTSSLPSFVGSANHSSAIHQLQNGYQGNGDYNSYVPAAPTTSSMGSSVRHSPLSSGISTPVTNVSPMHLQHIREQMAIALKRLKELEEQVRTIPVLQVKISVLQEEKRQLASQLKSQRASSQNEACGVRKRSYSAGNASQLELLARARRGGGELYIDYEEEEMESVEQSTQRIQEFRQLTADMQALERKIQDSSCEVASELRENGQCPSRECKSVAVGSDENMNDVVVYHRDLRPCKDTAVGTVTETRNVGISVTEAMLGVITEADKEIELQQQTIEALKEKIYRLEVQLKETTHDREMTKLKQELQAAGSRKKVDKATMAQPLVFSKLVEALVPTRDQMVGSHVDTRESCVGTSVQTSSVGTSCHPDCKNQVVGSELPMNWWVVKERVAMHDQCVGRSVETCDRSVGVEVSVCETGSNTEASGSDLTLLKTNLNLKDVRSIGCGDCSVDVIVCFPKECTSRSMNTEAVGQEEAAVMAVPHTTDQHTSTNLERVDQCTNTEAATLVESCTNTLLSTMDKQTSTQTVEMRTVAIGEGRVRDINPSTKTRSVGVGTVLSGNSEFDRPCAVKTKESGVGQINIQDNYLVGLKMRTIACGPPQLTVGLMGSRRSVGVGNEPVGELPEESPQPRVASGMVTGLDHYIERVQRLLAEQQTLLAENYSELAEAFGEPHSQIGSLNSQLISTLSSINSVMKSASTEELRNSDFQKASLGKTTGNHLEYTCKCGGLRSGGLLNVQPSQPEVEAETAEGKHSRGHEQFPMQGSTLPPVNLTDDQIATGLYVCPNNENTLKSIMKKSDGNKDSNGAKKNLQFIGINGGYETTSSDESSSDGSSSSESDDECDTIGYPPEEEEEEEEKDHDTRGMAEGHHAVNIEGFKSARVEDEVQVPECEPEKEEIRERYELSEKMLSACNLLKYNIKDPKALASKDMRICLNTLQHDWFRVSSQKSAVPAMVGDYIAAFEAVSPDVLRYIINMADGNGNTALHYSVSHSNFQIVKLLLDADVCNVDHQNKAGYTPIMLAALAAVEAEKDMQVVEELFSCGDVNAKASQAGQTALMLAVSHGRIDMVKGLLACGADVNIQDDEGSTALMCASEHGHVEIVKLLLAQPGCNGHLEDNDGSTALSIALEAGHKDIAVLLYAHLNFSKAQSPSTPRLGRKTSPGPTHRGSFD
As for B1, the binding entry is “binds”.
